The experiment concerns the target T1, transforming growth factor β-activated kinase 1 (TAK1) (plasmid-expressed in HEK293T cells) (UniProt O43318).
T1 sequence: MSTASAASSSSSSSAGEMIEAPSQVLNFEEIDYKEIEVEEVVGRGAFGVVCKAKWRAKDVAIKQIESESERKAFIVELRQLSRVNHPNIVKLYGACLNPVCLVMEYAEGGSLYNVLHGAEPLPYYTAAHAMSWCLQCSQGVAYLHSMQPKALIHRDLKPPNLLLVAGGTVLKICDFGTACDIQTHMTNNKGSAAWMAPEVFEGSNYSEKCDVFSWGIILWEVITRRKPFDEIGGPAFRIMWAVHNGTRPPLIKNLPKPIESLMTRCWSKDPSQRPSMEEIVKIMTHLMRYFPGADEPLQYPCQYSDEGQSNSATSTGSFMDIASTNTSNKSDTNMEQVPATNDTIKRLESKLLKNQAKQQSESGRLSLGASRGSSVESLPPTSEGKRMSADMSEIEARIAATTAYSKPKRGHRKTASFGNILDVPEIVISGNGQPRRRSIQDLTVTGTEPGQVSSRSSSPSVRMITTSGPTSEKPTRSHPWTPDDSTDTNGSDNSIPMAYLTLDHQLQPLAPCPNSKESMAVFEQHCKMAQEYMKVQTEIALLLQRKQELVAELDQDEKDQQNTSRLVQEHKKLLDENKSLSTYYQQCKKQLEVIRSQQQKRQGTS
As to the kind of experiment: co-IP; HEK293T cells transiently transfected for 48 h; lysates incubated with anti-Flag M2 Affinity Gel and anti-GFP agarose beads at 4°C overnight; immunoblot.

Results are given in words; binding and its absence hold for the method and conditions named. Binding seen in cells or lysates may run through a third protein. Some results given as binding are weak or reduced against the parent protein; the word gives no strength.

B1: Galectin-9(226–355) (domain or fragment, UniProt O00182 226-355)
chain: PFITTILGGLYPSKSILLSGTVLPSAQRFHINLCSGNHIAFHLNPRFDENAVVRNTQIDNSWGSEERSLPRKMPFVRGQSFSVWILCEAHCLKVAVDGQHLFEYYHRLRNLPTINRLEVGGDIQLTHVQT
In the case of B1, the binding entry is “binds”.

Values taken from PMC8256295.
